Measurements published in publication PMC9186531, “Biochemical and structural characterization of the flavodoxin-like domain of the Schizosaccharomyces japonicus putative tRNA ^Phe 4-demethylwyosine synthase Tyw1 in complex with FMN” (microPublication Biology, 2022).
These are yes or no findings as the source states them, for the method shown. Where a sequence is shown, tags or fusion partners need not be part of it.

B1: Schizosaccharomyces japonicus Tyw1 recombinant fragment 30-251 (domain or fragment, UniProt B6K6D6 30-251)
chain: KKLAKPEKIASATSLKGSTPKAPKVFRKTEKTKHSNRKIACEASTKSSRKLTDISACSINIFYSTLGGSTQKFAEHVADRIRSSLQTELVEILNLDYIDLDEYFSKGNSNTVYLVLLPSYAIESSIDYFLSALQTTIDDFRIVARPLEKLRGFAVLGFGDFEQYAGDLFCYQAIAADQRLAKLGAQRIAPLGVVNVKLEKAQVYEAMEAWTDLFLQYAKEKA
B2: Schizosaccharomyces japonicus Tyw1 recombinant fragment 76-251 (domain or fragment, UniProt B6K6D6 76-251)
chain: SSRKLTDISACSINIFYSTLGGSTQKFAEHVADRIRSSLQTELVEILNLDYIDLDEYFSKGNSNTVYLVLLPSYAIESSIDYFLSALQTTIDDFRIVARPLEKLRGFAVLGFGDFEQYAGDLFCYQAIAADQRLAKLGAQRIAPLGVVNVKLEKAQVYEAMEAWTDLFLQYAKEKA

Key:
[1] = target: Schizosaccharomyces japonicus Tyw1 recombinant fragment 30-251 (Schizosaccharomyces japonicus) (UniProt B6K6D6); assay: AUC; sedimentation velocity, 60,000 RPM, 293 K, absorbance at 280 nm; 150 mM KCl, 20 mM NaCl, 2 mM MgCl2, 5% glycerol, 50 mM Hepes-NaOH pH 7.5, 0.5 mM 2-mercaptoethanol; c(S) analysis with SEDFIT; both purified
[2] = target: Schizosaccharomyces japonicus Tyw1 recombinant fragment 76-251 (Schizosaccharomyces japonicus) (UniProt B6K6D6); assay: as above

Binder	binding [1]	binding [2]
B1	no binding	
B2		no binding
